Test results reported in US20250172543A1, “HIGH DENSITY 3D HEPATOCYTE SPHEROID PLATFORM FOR DRUG ADME STUDIES” (Discovery Life Sciences, LLC, priority 2018, published 2025).

Legend:
[1] = actual in vivo clearance for comparison; cited from earlier work
[2] = tested on: PHHs grown in suspension format; test: Clearance measurement with PHHs grown in suspension format; conditions: FIGS. 8A-I
[3] = tested on: 3D primary human hepatocyte (PHH) high density spheroids; test: 3D PHH high density spheroid drug clearance assay; assay type: in vitro ADME; conditions: 0.1 μM substrate, 6-well spheroid insert, in vivo hepatic clearance predicted from in vitro Clint by well stirred model

Measurability of clearance in suspension hepatocytes [2]: unable to measure
Predicted CLh, 3D HD Spheroids [3]: 1.62
SMILES: Nc1nc2ccc(OC(F)(F)F)cc2s1 [Riluzole]
In Vivo CLnonrenal [1]: 2.05
